Measurements from patent publication US10907116B2, “Olfactive compositions comprising cyclohexyl-alkyl carbinols” (P2 SCIENCE, INC., priority 2015, dated 2021).
“Also recorded” adds a separate entry of the source.

Assay: Olfactory analysis of compound (I) on fragrance blotter
Conditions: presented on the fragrance blotter neat

CC(C)C(O)C1CC=CCC1 (stereo not shown) [compound (I), 1-(cyclohex-3-en-1-yl)-2-methylpropan-1-ol]
aroma (olfactory description): minty aroma that can be described as fresh, invigorating, and menthol-like; also recorded: fresh, minty, menthol-like smell; also recorded: minty aroma, which can be described as fresh, invigorating, and menthol-like
